About 3,700 (7%) of roughly 53,000 sequences were called active.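 The calls were made as follows: active = gene knockdowns whose robust z-score for IL-1 alpha signal is at least 2 or at most -2, so actives lie on both sides; inactive = the rest.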 Some of the results follow.
Experiment: Components of the Cytosolic LPS Sensing Pathway: Gene Identification via Genome-wide siRNA Screen;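 also: robust z of the log signal after scaling to non-targeting control siRNA wells of the plate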
Settings: RAW264.7 macrophages, IL-1a HTRF, actives lie on both sides, screened at 100 nM (by protocol), cells primed 5 h with Pam3CSK4 first
Outline: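 RAW264.7 mouse macrophages reverse-transfected with single siRNAs (100 nM final) for 48h, primed with Pam3CSK4 for 5 hours, then transfected with LipidA for 24 hour. Supernatant IL-1a read by HTRF; values normalized to negative-control median, log-transformed robust z-scores.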
For GCAUUUAUCACAUGGACAUTT against Tle4, the z-score was inactive: 1.11. For GGAACAAGAGAAGAUCCUCTT against Cd209b, the z-score was inactive: 1.01. For GCACUGCUGGCUAUUGGAATT against Golt1b, the z-score was inactive: -0.494. With GGACAACCAGAAAUGUAUGTT against Grid1 the z-score was inactive: -1.65. In the case of UGAUUUCAACAAGUGGCAUTT against Olfr730, the z-score is reported as inactive: -0.686. With GGAUUUUGGCCUUUCCAUUTT against Ly86 the z-score was inactive: 0.375. With GGAAAAGAUACGGAAGAUUTT against Acpp the z-score was inactive: 0.485. For GGCUACGCUGACUAUGUCUTT against Creg1, the z-score was inactive: -0.77. In the case of CCUGAGACUAGACAGAUGGTT against Hmga1, the z-score is reported as inactive: 0.61. In the case of GGCGAGUUCAGGAGUUUACTT against Fmnl1, the z-score is reported as active: 2.55. In the case of GGACACACAAGAGAAGAUCTT against Thop1, the z-score is reported as inactive: -0.408. With GGAUGUCCUUGACUUUAAATT against Atp6v0a4 the z-score was inactive: 0.704. With CCAAUGAAGAUCCUUCCACTT against Gabra3 the z-score was inactive: 1.61. For CGUUGAUGUGUAUUUAAACTT against Vopp1, the z-score was inactive: 0.704. With GCACAUGCAUGGCUCUAAGTT against Hinfp the z-score was inactive: 0.779. For GCGAGUAUUCAGAUCAUACTT against Wsb2, the z-score was inactive: -1.46. With GGAAAUUUUUGGUGAAAGGTT against Dnajb7 the z-score was inactive: 0.551. For GCCCAGUCUUCUGAUGAACTT against Rpain, the z-score was inactive: -0.901. In the case of CCUGACUCCUACUCAAUUATT against Hcrtr1, the z-score is reported as inactive: -0.701. In the case of GGAUACGAAAACGACUGCATT against Pdpr, the z-score is reported as active: 2.05. For CGAUCCAGACUUUGUCCCUTT against Dzip1l, the z-score was inactive: -0.186. In the case of CCACUGAAGACGUGAAGCUTT against Cenps, the z-score is reported as inactive: -1.09. In the case of GGAUGUGAAGGAUGGGAAGTT against Rps18, the z-score is reported as inactive: 1.11. In the case of GGCGCAUCCAAACUUUGAUTT against Kcnq3, the z-score is reported as inactive: -0.72. In the case of GGUGUCAAUCAUGUUGUCATT against Susd2, the z-score is reported as inactive: -1.69. With GGAAGAAAUGAUGAAUGACTT against Chmp2a the z-score was active: 2.36. With GGUCAUCCUGGACAAUCUCTT against Syt6 the z-score was inactive: -1.07. In the case of GGAAAGAGAGAAGAAAUAGTT against Lmo2, the z-score is reported as inactive: 0.438. For GCUUAGAGCUUCAUAUAGCTT against Tlr12, the z-score was inactive: -0.367. With GCUCCUCUCAGGUGUACGATT against B9d2 the z-score was active: 2.23. With GGAUUCAAGGAAGGCCUUCTT against Myl7 the z-score was inactive: -0.146. For GGCUCUUUGAAGUACUACATT against Ercc1, the z-score was inactive: 1.12. With GCCCAAAAAGGAGGGUAGUTT against Aebp1 the z-score was inactive: -0.121. With CCAGUGGUCUGAAUCAGAUTT against Fbxw11 the z-score was inactive: -1.51. In the case of GCAUGGGAUUGGUUCAUGATT against Nmi, the z-score is reported as inactive: -0.324. For GGAAUCAGCAAACUCAACCTT against Rnase11, the z-score was inactive: -0.748. In the case of GGUUCCUUAAACAUUCAGATT against Tspan31, the z-score is reported as active: 2.28. In the case of GGUAUUGUUUGGUGACAAATT against Lipk, the z-score is reported as inactive: -1.82. With CGUUUGUUGAAAGAAGAAGTT against Cisd1 the z-score was inactive: 0.0701. In the case of CCGAAAACAAUAACUCCUCTT against Six1, the z-score is reported as inactive: 0.367. For GGCACAAUGGACUCAGUCATT against Tubb2b, the z-score was inactive: -0.91. For GGUGAAGUUUUUCUACUUGTT against Tram2, the z-score was inactive: -0.915. In the case of GGACAAGUUUAACAGGAAUTT against Apoa4, the z-score is reported as inactive: -0.508. With GGAAUGGUUGCCUCUGUUATT against Olfr1182 the z-score was inactive: -0.0442. With CCCUCGUUGCUUUCUGCAUTT against Slc16a8 the z-score was inactive: 0.0792. For GGAUUUUUGCCUCUAACUUTT against Bysl, the z-score was inactive: 0.604. In the case of GGACUUUGAGGAGAAGGAUTT against Rabep2, the z-score is reported as inactive: -1.34. In the case of GCGAAUUUUUGACACCUAUTT against Elmod2, the z-score is reported as inactive: 0.888. For GCCAAAUUUUGGGAUGUAATT against Dtl, the z-score was inactive: 1.6. In the case of GGCUCUAGGACCAAAAUUUTT against Hsd3b2, the z-score is reported as inactive: -0.0259. With GGAUCACAGAAUAGAACAATT against Hpgds the z-score was inactive: 0.237. For GGAACCUACUUGUUACCUUTT against Nlrp5, the z-score was inactive: 0.731. In the case of GCGACUUAGAAAAGAACAGTT against Ccdc58, the z-score is reported as inactive: 1.91. For CGAGUUCCCUAUCAAUCUCTT against Flrt1, the z-score was inactive: -1.95. In the case of GUUUCUGGGUGAGCGCGAUTT against Fzd2, the z-score is reported as active: 2.29. For GGAGCUAGAGUGCUCAAGATT against Ceacam14, the z-score was inactive: -1.5. In the case of GGCAGACCCAUAAUUAAUCTT against Arsk, the z-score is reported as inactive: -0.567. With GCCAGAAGUCCGAUACUACTT against Plk2 the z-score was inactive: -0.12. With GAAUGCUAUUAGGAAACUGTT against Olfr1226 the z-score was inactive: 0.306. For UUUUGCUGAAUGGUAUGUATT against Cpsf6, the z-score was inactive: -0.304. In the case of GGCUUACCAAUGUGAAUGGTT against Trpv5, the z-score is reported as inactive: -0.708. With GGAAUCUUUAGACCAUCUCTT against Myh1 the z-score was active: 5.3. With GGACAUGUACAGACCUCACTT against Cacng5 the z-score was inactive: 0.225. For GGCCAAGGAAAGUAUGAAUTT against Sox7, the z-score was inactive: 0.285. In the case of GGCAAGGAUUUGUGUUUGCTT against Tmem115, the z-score is reported as inactive: -0.169. For GGACAUUGUCCUGAAUGGCTT against Hsd3b3, the z-score was inactive: -0.924. For GCCUUAGGAAAUUCUCAAUTT against Rbm12b2, the z-score was inactive: 0.334. With GGAACUAGAAGAAAUGUUATT against Mrps9 the z-score was inactive: 0.768. For GGAAGAGCAACAUGUUUAATT against Zfp710, the z-score was inactive: -0.543. For GGAGAAUCAUGGACAGCUGTT against Olfr2, the z-score was inactive: -0.189. With GGUUCUUUCAGAAAAUGGATT against Kcnip3 the z-score was inactive: 0.88. For GGAAAAAGGCACGAAAUGATT against Ppa2, the z-score was inactive: -1.74. With GGUCACCCAUGUACUUCUUTT against Olfr1189 the z-score was inactive: 0.404. For GGCAGAGCUCAAAAAGAAATT against Ankrd1, the z-score was inactive: -1.94. In the case of GCCGGUGACUUUCUAAUUUTT against Yrdc, the z-score is reported as inactive: -1.32. For CGGGUCCUGUGAAGAACUATT against Sugp1, the z-score was inactive: 0.617. With GCACUGAUUACGCUAAUUUTT against Skap2 the z-score was inactive: 0.264. In the case of GGCACUUGUGAGAAAAAUCTT against Insc, the z-score is reported as inactive: -1.66. For GGAGAGCAUUUCUUAAGAATT against Pex14, the z-score was inactive: -0.645. With GCUAACCUUUGGAAUUGGATT against Rnf139 the z-score was inactive: -0.0299. With CCCGUUUGAGCUACUUCUUTT against Rgs2 the z-score was inactive: -0.807. With GGCAUAUCCUCCUUAUCCATT against Dazl the z-score was active: -2.2. For GCUGUUCCAUGUUAAAAAATT against Esm1, the z-score was inactive: 0.765. With CCCAUCAGAUUGUUAUUAATT against Olfr652 the z-score was inactive: 0.84. In the case of CCAGAUGACAAAUUUACCCTT against Tdpoz4, the z-score is reported as inactive: 0.655. For GGGACUGGAAUUGACAUCCTT against Trpm4, the z-score was inactive: -1.38. In the case of GGAACAGAUACCUUUCUAUTT against Odam, the z-score is reported as inactive: 1.12. In the case of GCAGAAAAACCUGUGAAAATT against Pcnp, the z-score is reported as inactive: 1.57. For AAAGCGCAUUCACAAAAAUTT against Olfr1453, the z-score was inactive: 0.197. For GGAGAGGAAGACUUUGAAUTT against Pin1, the z-score was inactive: -0.594. In the case of AGAAAACUCGAGGUGACCATT against Znhit1, the z-score is reported as inactive: -0.288. In the case of GGGCAUUGGAAAACUAAAGTT against Lrrc1, the z-score is reported as inactive: 0.829. In the case of GGUAAAAGGUGCCCUUCAATT against Olfr1056, the z-score is reported as inactive: -0.517. For GGAAUGAUGCCACAGAGGUTT against Sost, the z-score was inactive: 0.413. For GGUUACAGUAAUUCAGUGUTT against Tdrp, the z-score was inactive: -0.372. In the case of GCCAACUUGUACCAAACGCTT against Slc25a19, the z-score is reported as inactive: 0.398. For GCAUGAUGCAAGGACUCUCTT against Onecut2, the z-score was inactive: 1.08. For GGUGAUAAAACCUGUUUCATT against Col19a1, the z-score was inactive: 0.256. With GCACAACAUCGAAAUUGAGTT against Lingo1 the z-score was inactive: -1.1. In the case of GCUACUACAGUCAGUCGCATT against Galr2, the z-score is reported as inactive: 0.537. For GGAUGCAGAUGCUGUGGACTT against S100a1, the z-score was inactive: -0.918. In the case of GCCCGUCGGAAAGAAGAAATT against Gpatch11, the z-score is reported as inactive: 0.66. For GGCUACAGGGUCUUAUUUCTT against Alx3, the z-score was inactive: 0.952. For GGACAUAUAUAGCAAGGAGTT against Polrmt, the z-score was inactive: 1.07. In the case of GGAUAAUUUGGAUUUCGAGTT against Pcdhgb2, the z-score is reported as inactive: -0.172. For GCUUGCUCGGAGCUUAAGATT against Pik3c3, the z-score was inactive: 0.286. With GCCCAAGCGAUCUUUGCAUTT against Vangl2 the z-score was inactive: -0.273. In the case of GGCUGAGAAGCUAAAGGAGTT against Pabpn1, the z-score is reported as inactive: -1.97.

From PubChem BioAssay AID1508600 (Functional Genomics Laboratory (NCATS/FGL), 2020)
